Results: the supplement of paper PMC10849652
This is one part of the list.

By UniProt entry, the sequences of proteins in these tests, tags left out. Where a name states a change or a piece, a line headed by the entry shows the natural chain unless it says otherwise.
UniProt P99999: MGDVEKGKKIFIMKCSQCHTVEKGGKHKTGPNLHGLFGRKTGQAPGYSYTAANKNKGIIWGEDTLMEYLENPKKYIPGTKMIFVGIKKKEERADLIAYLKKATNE
UniProt Q14247: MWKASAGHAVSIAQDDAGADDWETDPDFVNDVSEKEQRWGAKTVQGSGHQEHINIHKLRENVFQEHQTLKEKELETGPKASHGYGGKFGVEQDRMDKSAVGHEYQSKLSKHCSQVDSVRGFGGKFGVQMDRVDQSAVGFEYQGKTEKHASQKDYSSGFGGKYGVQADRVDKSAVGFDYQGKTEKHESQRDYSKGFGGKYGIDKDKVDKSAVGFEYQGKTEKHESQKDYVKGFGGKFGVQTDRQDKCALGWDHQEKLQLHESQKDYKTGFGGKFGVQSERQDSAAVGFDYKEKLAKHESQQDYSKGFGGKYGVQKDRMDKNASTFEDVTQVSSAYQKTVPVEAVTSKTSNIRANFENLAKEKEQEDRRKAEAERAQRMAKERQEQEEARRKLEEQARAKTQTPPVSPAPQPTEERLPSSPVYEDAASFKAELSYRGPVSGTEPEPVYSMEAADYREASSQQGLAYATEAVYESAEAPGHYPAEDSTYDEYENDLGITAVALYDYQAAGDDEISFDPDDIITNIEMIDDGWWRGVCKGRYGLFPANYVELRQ
UniProt P19784, whole entry, looked up: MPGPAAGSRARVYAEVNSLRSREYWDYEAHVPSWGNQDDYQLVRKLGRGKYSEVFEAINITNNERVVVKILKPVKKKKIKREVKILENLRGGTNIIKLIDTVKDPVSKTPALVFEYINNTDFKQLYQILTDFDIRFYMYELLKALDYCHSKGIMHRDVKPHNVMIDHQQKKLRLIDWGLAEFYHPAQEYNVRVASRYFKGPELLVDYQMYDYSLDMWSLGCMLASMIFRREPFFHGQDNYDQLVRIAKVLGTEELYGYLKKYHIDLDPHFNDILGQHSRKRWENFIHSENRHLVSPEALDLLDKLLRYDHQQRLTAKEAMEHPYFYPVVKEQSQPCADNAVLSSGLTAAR
UniProt Q8WUE5: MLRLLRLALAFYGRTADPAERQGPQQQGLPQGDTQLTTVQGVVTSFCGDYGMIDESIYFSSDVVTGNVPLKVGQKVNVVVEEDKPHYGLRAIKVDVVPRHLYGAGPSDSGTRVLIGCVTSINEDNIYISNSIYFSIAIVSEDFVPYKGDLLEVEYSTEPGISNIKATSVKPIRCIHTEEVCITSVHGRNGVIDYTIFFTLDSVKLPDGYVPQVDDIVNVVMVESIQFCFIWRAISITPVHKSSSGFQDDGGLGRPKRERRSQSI
UniProt O43310: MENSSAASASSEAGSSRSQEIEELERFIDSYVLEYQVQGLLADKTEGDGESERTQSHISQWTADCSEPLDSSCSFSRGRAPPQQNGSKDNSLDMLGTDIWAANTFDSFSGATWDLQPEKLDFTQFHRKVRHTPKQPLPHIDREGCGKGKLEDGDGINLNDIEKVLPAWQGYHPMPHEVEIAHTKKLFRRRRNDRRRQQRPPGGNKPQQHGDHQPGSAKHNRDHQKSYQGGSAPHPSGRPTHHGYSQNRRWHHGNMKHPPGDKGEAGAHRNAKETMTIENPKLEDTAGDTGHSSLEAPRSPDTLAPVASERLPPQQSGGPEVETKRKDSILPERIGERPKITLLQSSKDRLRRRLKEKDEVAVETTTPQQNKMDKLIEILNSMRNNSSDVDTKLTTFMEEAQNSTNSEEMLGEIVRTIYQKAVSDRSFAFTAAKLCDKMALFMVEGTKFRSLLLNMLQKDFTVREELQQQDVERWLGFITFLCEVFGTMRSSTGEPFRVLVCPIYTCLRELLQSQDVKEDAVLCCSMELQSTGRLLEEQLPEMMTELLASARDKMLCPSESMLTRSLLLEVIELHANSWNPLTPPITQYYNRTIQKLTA
UniProt P21291: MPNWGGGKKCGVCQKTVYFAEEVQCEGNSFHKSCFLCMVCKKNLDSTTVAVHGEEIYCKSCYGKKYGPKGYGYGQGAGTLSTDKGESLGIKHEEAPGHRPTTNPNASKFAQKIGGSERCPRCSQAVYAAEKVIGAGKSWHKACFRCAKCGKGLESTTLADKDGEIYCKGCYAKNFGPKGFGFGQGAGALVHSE
UniProt Q7L576: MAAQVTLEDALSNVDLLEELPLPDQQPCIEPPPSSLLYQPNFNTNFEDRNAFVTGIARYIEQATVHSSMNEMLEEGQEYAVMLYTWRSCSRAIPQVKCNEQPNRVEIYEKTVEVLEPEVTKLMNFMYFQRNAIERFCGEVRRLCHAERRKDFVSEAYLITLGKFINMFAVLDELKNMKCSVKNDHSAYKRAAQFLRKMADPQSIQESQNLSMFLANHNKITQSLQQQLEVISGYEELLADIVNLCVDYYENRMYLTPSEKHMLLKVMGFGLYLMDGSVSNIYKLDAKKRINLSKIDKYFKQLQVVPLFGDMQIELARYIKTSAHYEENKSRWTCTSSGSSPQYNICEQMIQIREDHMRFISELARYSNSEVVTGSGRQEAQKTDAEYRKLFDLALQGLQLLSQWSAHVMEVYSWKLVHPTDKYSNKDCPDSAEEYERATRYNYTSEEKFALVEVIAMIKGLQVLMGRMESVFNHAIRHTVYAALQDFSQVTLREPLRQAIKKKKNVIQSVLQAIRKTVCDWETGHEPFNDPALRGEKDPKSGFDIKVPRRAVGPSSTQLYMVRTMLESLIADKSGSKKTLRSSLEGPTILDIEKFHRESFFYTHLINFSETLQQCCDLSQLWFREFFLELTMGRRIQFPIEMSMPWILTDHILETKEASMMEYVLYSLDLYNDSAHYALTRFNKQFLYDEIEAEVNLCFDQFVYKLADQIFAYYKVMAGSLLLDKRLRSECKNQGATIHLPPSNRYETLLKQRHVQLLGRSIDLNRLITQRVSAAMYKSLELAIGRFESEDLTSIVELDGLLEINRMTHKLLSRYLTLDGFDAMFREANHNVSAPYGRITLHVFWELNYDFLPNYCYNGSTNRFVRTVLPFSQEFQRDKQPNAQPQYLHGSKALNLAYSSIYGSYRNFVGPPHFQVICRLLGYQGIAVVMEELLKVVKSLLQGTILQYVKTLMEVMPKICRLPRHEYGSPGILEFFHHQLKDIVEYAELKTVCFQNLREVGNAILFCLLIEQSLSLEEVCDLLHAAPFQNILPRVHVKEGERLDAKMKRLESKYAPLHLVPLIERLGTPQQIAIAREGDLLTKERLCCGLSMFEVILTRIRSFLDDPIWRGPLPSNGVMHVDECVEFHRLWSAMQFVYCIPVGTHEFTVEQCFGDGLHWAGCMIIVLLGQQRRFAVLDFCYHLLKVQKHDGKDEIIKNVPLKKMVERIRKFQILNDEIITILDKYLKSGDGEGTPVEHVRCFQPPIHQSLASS
UniProt O60888: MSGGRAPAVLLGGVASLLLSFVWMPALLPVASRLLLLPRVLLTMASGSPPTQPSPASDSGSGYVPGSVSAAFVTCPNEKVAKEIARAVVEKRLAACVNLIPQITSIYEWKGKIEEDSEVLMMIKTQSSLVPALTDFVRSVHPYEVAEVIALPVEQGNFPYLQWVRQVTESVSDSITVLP
UniProt Q08257: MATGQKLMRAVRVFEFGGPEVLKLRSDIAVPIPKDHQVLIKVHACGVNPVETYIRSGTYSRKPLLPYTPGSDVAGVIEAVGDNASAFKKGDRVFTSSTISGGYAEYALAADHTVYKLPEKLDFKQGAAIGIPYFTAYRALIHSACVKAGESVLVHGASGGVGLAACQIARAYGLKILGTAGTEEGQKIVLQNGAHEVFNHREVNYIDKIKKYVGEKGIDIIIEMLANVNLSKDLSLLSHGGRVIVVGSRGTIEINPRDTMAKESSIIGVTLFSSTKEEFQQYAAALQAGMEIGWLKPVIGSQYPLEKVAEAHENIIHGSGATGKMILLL
UniProt Q9P013: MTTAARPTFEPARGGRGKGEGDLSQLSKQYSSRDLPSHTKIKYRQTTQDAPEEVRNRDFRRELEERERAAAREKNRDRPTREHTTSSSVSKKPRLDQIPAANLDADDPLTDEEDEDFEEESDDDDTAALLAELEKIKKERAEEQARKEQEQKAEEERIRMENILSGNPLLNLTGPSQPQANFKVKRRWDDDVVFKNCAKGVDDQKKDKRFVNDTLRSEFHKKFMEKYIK
UniProt Q9BZJ0: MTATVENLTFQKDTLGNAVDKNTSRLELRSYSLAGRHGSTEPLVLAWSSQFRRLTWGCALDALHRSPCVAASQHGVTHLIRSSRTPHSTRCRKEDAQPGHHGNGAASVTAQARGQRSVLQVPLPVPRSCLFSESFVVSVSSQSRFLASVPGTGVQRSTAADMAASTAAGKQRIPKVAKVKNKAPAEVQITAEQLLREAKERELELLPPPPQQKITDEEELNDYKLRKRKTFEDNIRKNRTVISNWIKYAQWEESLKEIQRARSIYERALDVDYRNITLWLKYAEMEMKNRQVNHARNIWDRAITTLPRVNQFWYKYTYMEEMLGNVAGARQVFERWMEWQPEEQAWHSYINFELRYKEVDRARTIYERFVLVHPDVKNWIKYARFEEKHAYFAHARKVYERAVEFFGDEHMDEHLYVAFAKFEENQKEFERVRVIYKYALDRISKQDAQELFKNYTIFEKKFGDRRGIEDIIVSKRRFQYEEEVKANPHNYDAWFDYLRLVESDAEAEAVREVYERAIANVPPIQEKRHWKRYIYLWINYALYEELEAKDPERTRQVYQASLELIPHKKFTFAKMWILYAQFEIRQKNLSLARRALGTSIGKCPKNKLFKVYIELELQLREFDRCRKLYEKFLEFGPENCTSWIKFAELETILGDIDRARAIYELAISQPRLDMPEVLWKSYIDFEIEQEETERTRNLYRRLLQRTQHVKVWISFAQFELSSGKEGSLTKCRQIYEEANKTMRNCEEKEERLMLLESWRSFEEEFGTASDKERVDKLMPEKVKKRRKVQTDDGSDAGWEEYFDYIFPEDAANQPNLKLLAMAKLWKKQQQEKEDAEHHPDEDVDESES
UniProt Q9BQA9: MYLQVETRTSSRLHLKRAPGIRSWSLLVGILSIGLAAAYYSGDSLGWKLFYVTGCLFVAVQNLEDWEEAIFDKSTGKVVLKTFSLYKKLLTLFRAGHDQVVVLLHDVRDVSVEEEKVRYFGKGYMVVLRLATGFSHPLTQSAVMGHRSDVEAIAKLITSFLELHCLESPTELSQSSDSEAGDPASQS

Tests used:
Test in all cases: log2 fold change, soluble protein after heating vs DMSO (PISA); higher = thermal stabilisation; K562 lysate, 10 uM; active = over 0.2 and 3.5 SD of the protein, either way, in both replicates (recomputed)
[1] = compound: CS(=O)(=O)CCNCc1ccc(-c2ccc3ncnc(Nc4ccc(OCc5cccc(F)c5)c(Cl)c4)c3c2)o1 [lapatinib]
Method in brief: (§1)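 Dounce homogenisation of K562 pellets in PBS pH 7.4 with 1 mM MgCl2 produced a crude extract, used at 1 mg/mL protein. Exposure to 10 μM compound lasted 30 min, and aliquots were then heated for 3 min across 48°C-58°C, pooled and brought to 0.5% NP-40 at 4°C. The supernatant after 21,000xg for 90 min was quantified by TMTpro 16plex LC-MS/MS with channel sums equalised. Duplicate values are given as log-two fold change in thermal stability relative to solvent controls.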

[2] = compound: CS(=O)(=O)N1CCN(Cc2cc3nc(-c4cccc5[nH]ncc45)nc(N4CCOCC4)c3s2)CC1 [pictilisib]
Method in brief: as §1

[3] = compound: C[C@@H](Oc1cc(-c2cnn(C3CCNCC3)c2)cnc1N)c1c(Cl)ccc(F)c1Cl [crizotinib]
Method in brief: as §1

[4] = compound: C[C@H](C1=CC=C(C=C1)C(=O)NC2=C3C=CNC3=NC=C2)N
Method in brief: as §1

[5] = compound: C[C@H](Nc1ncnc2nc[nH]c12)c1cc2cccc(Cl)c2c(=O)n1-c1ccccc1 [duvelisib]
Method in brief: as §1

[6] = compound: Cc1cc(Nc2cc(CN3CCOCC3)c3nc(C)c(Cc4ccc(Cl)cc4F)n3n2)n[nH]1 [gandotinib]
Method in brief: as §1

[7] = compound: Cc1cc(Nc2cc(N3CCN(C)CC3)nc(Sc3ccc(NC(=O)C4CC4)cc3)n2)n[nH]1 [tozasertib]
Method in brief: as §1

[8] = compound: Cc1ccc(-n2nc(C(C)(C)C)cc2NC(=O)Nc2ccc(OCCN3CCOCC3)c3ccccc23)cc1 [doramapimod]
Method in brief: as §1

[9] = compound: Cc1ccc(NC(=O)c2ccc(CN3CC[C@H](N(C)C)C3)c(C(F)(F)F)c2)cc1Nc1nccc(-c2cncnc2)n1 [bafetinib]
Method in brief: as §1

[10] = compound: Cc1cccc(CC(=O)N2CCc3c2ccc(-c2cn(C)c4ncnc(N)c24)c3F)n1
Method in brief: as §1

[11] = compound: Cc1cn(-c2cc(NC(=O)c3ccc(C)c(Nc4nccc(-c5cccnc5)n4)c3)cc(C(F)(F)F)c2)cn1 [nilotinib]
Method in brief: as §1

[12] = compound: Cc1nc(Nc2n[nH]c3c2CN(C(=O)N[C@H](CN(C)C)c2ccccc2)C3(C)C)c2sccc2n1
Method in brief: as §1

[13] = compound: Cc1nc(Nc2ncc(C(=O)Nc3c(C)cccc3Cl)s2)cc(N2CCN(CCO)CC2)n1 [dasatinib]
Method in brief: as §1

[14] = compound: Cc1ncc(-c2ccnc(Nc3ccc(S(C)(=O)=O)cc3)n2)n1C(C)C
Method in brief: as §1

[15] = compound: Cn1cc(-c2ccc3c(c2)CCN3C(=O)Cc2cccc(C(F)(F)F)c2)c2c(N)ncnc21
Method in brief: as §1

[16] = compound: Cn1cc(CNCC2CCN(c3ncc(C(=O)NO)cn3)CC2)c2ccccc21 [quisinostat]
Method in brief: as §1

[17] = compound: Cn1cncc1[C@@](N)(c1ccc(Cl)cc1)c1ccc2c(c1)c(-c1cccc(Cl)c1)cc(=O)n2C [tipifarnib]
Method in brief: as §1

[18] = compound: NC(=O)Nc1cc(-c2cccc(F)c2)sc1C(=O)N[C@H]1CCCNC1
Method in brief: as §1

[19] = compound: NC(=O)c1cnc(N[C@@H]2CCCC[C@@H]2N)nc1Nc1cccc(-n2nccn2)c1
Method in brief: as §1

[20] = compound: NC1(c2ccc(-c3nc4ccn5c(=O)[nH]nc5c4cc3-c3ccccc3)cc2)CCC1
Method in brief: as §1

Measured: log2 fold change

CYCS (UniProt P99999)
inactive: [1] 0.015 | [2] -0.033 | [3] 0.036 | [4] -0.054 | [5] -0.039 | [6] 0.056 | [7] -0.004 | [8] -0.029 | [9] 0.06 | [10] -0.006 | [11] 0.014 | [12] -0.038 | [13] 0.001 | [14] 0.008 | [15] -0.037 | [16] 0.035 | [17] 0.015 | [18] -0.003 | [19] -0.015 | [20] 0.022

CTTN isoform 2 (UniProt Q14247)
inactive: [1] 0.008 | [2] 0.026 | [3] 0.025 | [4] -0.017 | [5] -0.022 | [6] 0.057 | [7] -0.021 | [8] -0.025 | [9] 0 | [10] -0.016 | [11] -0.03 | [12] 0.012 | [13] -0.006 | [14] -0.015 | [15] -0.038 | [16] 0.023 | [17] 0.003 | [18] -0.027 | [19] -0.013 | [20] -0.012

CSNK2A2 (UniProt P19784)
inactive: [1] -0.116 | [2] 0.057 | [3] -0.071 | [4] 0.099 | [5] -0.02 | [6] -0.1 | [7] -0.035 | [8] -0.015 | [9] 0.009 | [10] -0.041 | [11] -0.031 | [12] 0.195 | [13] -0.039 | [14] 0.254 | [15] -0.004 | [16] 0.001 | [17] -0.014 | [18] 0.094 | [19] 0.018 | [20] -0.003

CT55 (UniProt Q8WUE5)
inactive: [1] 0.09 | [2] 0.019 | [3] -0.159 | [4] -0.145 | [5] 0.111 | [6] 0.023 | [7] 0.025 | [8] 0.164 | [9] -0.132 | [10] 0.111 | [11] -0.091 | [12] 0.025 | [13] -0.142 | [14] 0 | [15] -0.125 | [16] -0.071 | [17] -0.087 | [18] 0.081 | [19] 0.119 | [20] 0.057

CTIF isoform 2 (UniProt O43310)
inactive: [1] 0.074 | [2] 0 | [3] 0.045 | [4] -0.129 | [5] -0.014 | [6] 0.068 | [7] 0.133 | [8] -0.024 | [9] -0.059 | [10] 0.117 | [11] 0.057 | [12] -0.072 | [13] 0.043 | [14] 0.023 | [15] -0.031 | [16] -0.023 | [17] -0.016 | [18] 0.022 | [19] 0.015 | [20] -0.023

CSRP1 (UniProt P21291)
inactive: [1] -0.007 | [2] -0.013 | [3] 0.006 | [4] -0.124 | [5] -0.044 | [6] 0.023 | [7] -0.002 | [8] -0.04 | [9] -0.013 | [10] 0.037 | [11] 0.049 | [12] 0.044 | [13] 0.046 | [14] 0.054 | [15] -0.041 | [16] 0.024 | [17] -0.015 | [18] -0.05 | [19] -0.009 | [20] -0.028

CYFIP1 (UniProt Q7L576)
inactive: [1] 0.018 | [2] -0.015 | [3] -0.023 | [4] -0.057 | [5] 0.018 | [6] -0.015 | [7] 0.014 | [8] 0 | [9] -0.006 | [10] 0.028 | [11] 0.009 | [12] -0.017 | [13] -0.012 | [14] -0.029 | [15] -0.004 | [16] 0.023 | [17] 0.027 | [18] 0.003 | [19] 0.002 | [20] 0.006

CUTA isoform 2 (UniProt O60888)
inactive: [1] 0.022 | [2] -0.033 | [3] 0.027 | [4] -0.129 | [5] -0.012 | [6] 0.154 | [7] -0.018 | [8] -0.036 | [9] -0.041 | [10] 0.045 | [11] -0.023 | [12] 0.007 | [13] -0.014 | [14] 0.113 | [15] -0.092 | [16] -0.015 | [17] -0.006 | [18] 0.069 | [19] -0.023 | [20] -0.009

CREBBP (UniProt Q92793)
inactive: [1] 0.014 | [2] 0.003 | [3] -0.005 | [4] 0.026 | [5] -0.02 | [6] -0.022 | [7] 0.029 | [8] 0.007 | [9] -0.01 | [10] -0.042 | [11] 0.001 | [12] -0.029 | [13] -0.051 | [14] 0.049 | [15] 0.023 | [16] -0.012 | [17] 0.028 | [18] 0.006 | [19] 0 | [20] -0.007

CXorf56 (UniProt Q9H5V9)
inactive: [1] -0.011 | [2] 0 | [3] 0.009 | [4] -0.01 | [5] 0.016 | [6] 0.037 | [7] 0.02 | [8] -0.029 | [9] -0.008 | [10] -0.028 | [11] -0.017 | [12] 0.072 | [13] -0.024 | [14] -0.039 | [15] 0.015 | [16] 0.009 | [17] 0.02 | [18] -0.006 | [19] -0.005 | [20] -0.03

CTTN (UniProt Q14247)
inactive: [1] 0.025 | [2] -0.013 | [3] 0.019 | [4] -0.001 | [5] -0.026 | [6] 0.085 | [7] 0.014 | [8] 0.013 | [9] 0.024 | [10] -0.037 | [11] -0.002 | [12] 0.011 | [13] 0.052 | [14] -0.026 | [15] 0.036 | [16] 0.017 | [17] 0.033 | [18] -0.023 | [19] 0.001 | [20] -0.044

CRYZ (UniProt Q08257)
inactive: [1] -0.011 | [2] -0.011 | [3] 0.006 | [4] -0.095 | [5] 0.022 | [6] 0.041 | [7] -0.003 | [8] -0.017 | [9] -0.003 | [10] 0.018 | [11] 0.02 | [12] -0.021 | [13] 0 | [14] 0.014 | [15] -0.011 | [16] -0.027 | [17] 0.007 | [18] -0.019 | [19] -0.005 | [20] 0.003

CWC15 (UniProt Q9P013)
inactive: [1] -0.023 | [2] 0.024 | [3] 0.046 | [4] -0.01 | [5] 0.031 | [6] 0.028 | [7] 0.002 | [8] -0.039 | [9] -0.043 | [10] -0.003 | [11] -0.055 | [12] 0.047 | [13] 0.023 | [14] -0.032 | [15] -0.057 | [16] 0.075 | [17] -0.034 | [18] -0.008 | [19] 0.02 | [20] 0.053

CRNKL1 (UniProt Q9BZJ0)
inactive: [1] 0 | [2] 0.001 | [3] 0.063 | [4] 0.069 | [5] 0.068 | [6] -0.049 | [7] 0.058 | [8] 0.071 | [9] -0.043 | [10] 0.027 | [11] 0.005 | [12] 0.01 | [13] -0.16 | [14] 0.066 | [15] -0.064 | [16] 0.272 | [17] -0.027 | [18] -0.067 | [19] -0.001 | [20] 0.171

CYBC1 (UniProt Q9BQA9)
inactive: [1] -0.031 | [2] 0.007 | [3] -0.055 | [4] -0.169 | [5] 0.009 | [6] 0.092 | [7] 0.038 | [8] 0.073 | [9] -0.081 | [10] 0.064 | [11] 0.03 | [12] -0.035 | [13] -0.03 | [14] -0.01 | [15] 0.136 | [16] -0.159 | [17] -0.059 | [18] 0.02 | [19] -0.026 | [20] -0.069
